Results on 1 molecule are retold here after patent publication US4061779A, “Naphthalene derivatives having anti-inflammatory activity” (Beecham Group Limited, priority 1973, dated 1977).

For data set [1] the following is noted: some subjects, doses not greatly in excess of therapeutic dose; cited from earlier work.
Data set [2] has as its system rat stomach. The settings on record: 300 mg/kg/day orally, end of 11/2 days.

Turning to `COc1ccc2cc(C(C)C(=O)O)ccc2c1` (centres unmarked) [compound of formula (I)], the “irritation of the gastro-intestinal tract” value in data set [1] is recorded as “can cause severe irritation of the gastro-intestinal tract”. In addition, the gastric irritation entry in data set [2] is reported as “very severe gastric irritation”.
